Target: SGK1 (human) (UniProt O00141)
Assay: Flashplate

By UniProt entry, the sequences of proteins in these tests, tags left out. Where a name states a change or a piece, a line headed by the entry shows the natural chain unless it says otherwise.
UniProt O00141: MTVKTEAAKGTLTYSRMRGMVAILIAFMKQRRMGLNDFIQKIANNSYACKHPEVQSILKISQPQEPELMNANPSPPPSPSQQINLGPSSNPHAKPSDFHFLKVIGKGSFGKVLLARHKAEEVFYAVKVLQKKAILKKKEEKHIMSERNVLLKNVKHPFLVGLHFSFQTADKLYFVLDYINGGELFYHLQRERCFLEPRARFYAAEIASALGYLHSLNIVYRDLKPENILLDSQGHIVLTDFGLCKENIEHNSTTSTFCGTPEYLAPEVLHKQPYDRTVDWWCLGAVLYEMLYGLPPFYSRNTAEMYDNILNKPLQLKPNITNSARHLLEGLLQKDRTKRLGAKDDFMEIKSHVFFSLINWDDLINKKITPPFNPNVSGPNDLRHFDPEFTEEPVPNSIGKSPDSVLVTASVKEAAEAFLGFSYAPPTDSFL

Ki: > 10 µM
Compound: CSc1ccc(-c2nc(-c3ccc(F)cc3)c(-c3ccncc3)[nH]2)cc1
